The target in one assay is T1, FLAG-PIAS4 (human) (UniProt Q8N2W9).
T1 sequence: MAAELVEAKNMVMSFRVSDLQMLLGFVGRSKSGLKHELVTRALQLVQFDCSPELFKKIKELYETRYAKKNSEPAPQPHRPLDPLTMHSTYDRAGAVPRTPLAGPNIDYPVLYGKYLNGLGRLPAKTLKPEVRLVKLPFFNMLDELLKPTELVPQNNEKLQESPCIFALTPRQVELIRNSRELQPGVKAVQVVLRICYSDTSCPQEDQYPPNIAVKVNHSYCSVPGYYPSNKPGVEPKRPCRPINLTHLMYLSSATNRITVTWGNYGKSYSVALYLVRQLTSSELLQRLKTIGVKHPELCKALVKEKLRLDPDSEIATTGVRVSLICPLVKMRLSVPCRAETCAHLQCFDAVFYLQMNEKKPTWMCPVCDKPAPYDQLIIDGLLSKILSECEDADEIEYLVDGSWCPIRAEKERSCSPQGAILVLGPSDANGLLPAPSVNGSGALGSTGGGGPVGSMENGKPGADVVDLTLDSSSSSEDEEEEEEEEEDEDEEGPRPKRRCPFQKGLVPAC
Put plainly: proximity ligation.

Chains of the proteins cited; added tags and fusions are not shown.
UniProt P11387: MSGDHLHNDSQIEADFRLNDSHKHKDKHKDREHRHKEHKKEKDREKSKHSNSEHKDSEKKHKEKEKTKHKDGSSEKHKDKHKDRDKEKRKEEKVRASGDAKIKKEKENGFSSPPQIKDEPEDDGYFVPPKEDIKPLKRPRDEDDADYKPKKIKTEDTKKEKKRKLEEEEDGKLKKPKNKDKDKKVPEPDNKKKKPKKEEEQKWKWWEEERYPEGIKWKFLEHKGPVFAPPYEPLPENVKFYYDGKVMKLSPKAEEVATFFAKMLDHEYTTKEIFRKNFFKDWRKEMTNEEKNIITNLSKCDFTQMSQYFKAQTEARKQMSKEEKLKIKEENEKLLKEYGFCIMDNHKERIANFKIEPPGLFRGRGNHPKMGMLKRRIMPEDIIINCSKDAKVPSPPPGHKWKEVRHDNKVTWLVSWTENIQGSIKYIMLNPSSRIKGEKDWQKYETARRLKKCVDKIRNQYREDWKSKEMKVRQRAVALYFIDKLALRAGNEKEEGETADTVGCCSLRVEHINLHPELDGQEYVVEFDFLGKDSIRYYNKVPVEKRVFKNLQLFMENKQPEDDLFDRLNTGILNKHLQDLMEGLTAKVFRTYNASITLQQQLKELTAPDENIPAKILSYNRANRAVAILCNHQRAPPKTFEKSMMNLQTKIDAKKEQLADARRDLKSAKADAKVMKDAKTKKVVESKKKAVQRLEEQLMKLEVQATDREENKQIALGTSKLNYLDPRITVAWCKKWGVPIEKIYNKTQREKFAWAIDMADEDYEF
UniProt P11388: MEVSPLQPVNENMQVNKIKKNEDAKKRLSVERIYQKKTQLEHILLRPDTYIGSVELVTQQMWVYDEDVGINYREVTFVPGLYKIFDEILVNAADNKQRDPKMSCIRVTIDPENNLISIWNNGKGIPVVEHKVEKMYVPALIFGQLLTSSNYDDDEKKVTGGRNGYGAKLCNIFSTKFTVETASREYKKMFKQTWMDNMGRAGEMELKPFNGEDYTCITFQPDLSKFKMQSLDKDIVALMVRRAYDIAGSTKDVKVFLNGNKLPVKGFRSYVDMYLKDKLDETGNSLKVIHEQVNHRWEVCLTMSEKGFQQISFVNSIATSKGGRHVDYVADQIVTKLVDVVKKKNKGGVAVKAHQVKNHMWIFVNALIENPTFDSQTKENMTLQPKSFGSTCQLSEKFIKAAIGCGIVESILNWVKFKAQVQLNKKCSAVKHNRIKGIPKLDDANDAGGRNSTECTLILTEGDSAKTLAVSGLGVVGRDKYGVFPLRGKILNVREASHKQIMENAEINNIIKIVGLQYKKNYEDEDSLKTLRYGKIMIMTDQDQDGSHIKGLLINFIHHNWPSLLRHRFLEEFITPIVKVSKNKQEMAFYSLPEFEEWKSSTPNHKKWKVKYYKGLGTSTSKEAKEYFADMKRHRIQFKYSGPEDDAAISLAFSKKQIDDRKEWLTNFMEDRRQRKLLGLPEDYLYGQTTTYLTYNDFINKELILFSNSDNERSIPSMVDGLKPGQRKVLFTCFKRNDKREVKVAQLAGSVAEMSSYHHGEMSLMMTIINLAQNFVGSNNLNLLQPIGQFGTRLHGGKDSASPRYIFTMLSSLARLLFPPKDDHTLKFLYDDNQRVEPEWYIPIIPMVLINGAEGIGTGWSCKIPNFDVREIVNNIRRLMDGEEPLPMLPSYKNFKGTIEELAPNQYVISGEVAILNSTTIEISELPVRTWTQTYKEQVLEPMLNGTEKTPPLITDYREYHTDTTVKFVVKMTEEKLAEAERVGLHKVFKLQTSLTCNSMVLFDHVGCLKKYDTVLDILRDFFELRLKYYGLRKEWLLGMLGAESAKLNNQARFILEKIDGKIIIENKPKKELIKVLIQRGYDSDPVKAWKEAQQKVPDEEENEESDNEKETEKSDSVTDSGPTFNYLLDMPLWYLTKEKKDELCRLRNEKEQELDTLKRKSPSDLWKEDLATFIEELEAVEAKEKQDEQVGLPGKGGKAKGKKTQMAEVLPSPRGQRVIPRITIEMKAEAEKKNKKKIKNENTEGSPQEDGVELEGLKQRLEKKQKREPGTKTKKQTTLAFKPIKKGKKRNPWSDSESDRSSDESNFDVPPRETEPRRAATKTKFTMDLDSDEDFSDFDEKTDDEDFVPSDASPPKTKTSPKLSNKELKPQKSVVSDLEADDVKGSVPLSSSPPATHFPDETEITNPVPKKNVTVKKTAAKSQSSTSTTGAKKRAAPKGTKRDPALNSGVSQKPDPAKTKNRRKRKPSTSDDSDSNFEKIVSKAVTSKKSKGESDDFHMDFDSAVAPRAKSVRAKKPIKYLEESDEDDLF
UniProt Q02880: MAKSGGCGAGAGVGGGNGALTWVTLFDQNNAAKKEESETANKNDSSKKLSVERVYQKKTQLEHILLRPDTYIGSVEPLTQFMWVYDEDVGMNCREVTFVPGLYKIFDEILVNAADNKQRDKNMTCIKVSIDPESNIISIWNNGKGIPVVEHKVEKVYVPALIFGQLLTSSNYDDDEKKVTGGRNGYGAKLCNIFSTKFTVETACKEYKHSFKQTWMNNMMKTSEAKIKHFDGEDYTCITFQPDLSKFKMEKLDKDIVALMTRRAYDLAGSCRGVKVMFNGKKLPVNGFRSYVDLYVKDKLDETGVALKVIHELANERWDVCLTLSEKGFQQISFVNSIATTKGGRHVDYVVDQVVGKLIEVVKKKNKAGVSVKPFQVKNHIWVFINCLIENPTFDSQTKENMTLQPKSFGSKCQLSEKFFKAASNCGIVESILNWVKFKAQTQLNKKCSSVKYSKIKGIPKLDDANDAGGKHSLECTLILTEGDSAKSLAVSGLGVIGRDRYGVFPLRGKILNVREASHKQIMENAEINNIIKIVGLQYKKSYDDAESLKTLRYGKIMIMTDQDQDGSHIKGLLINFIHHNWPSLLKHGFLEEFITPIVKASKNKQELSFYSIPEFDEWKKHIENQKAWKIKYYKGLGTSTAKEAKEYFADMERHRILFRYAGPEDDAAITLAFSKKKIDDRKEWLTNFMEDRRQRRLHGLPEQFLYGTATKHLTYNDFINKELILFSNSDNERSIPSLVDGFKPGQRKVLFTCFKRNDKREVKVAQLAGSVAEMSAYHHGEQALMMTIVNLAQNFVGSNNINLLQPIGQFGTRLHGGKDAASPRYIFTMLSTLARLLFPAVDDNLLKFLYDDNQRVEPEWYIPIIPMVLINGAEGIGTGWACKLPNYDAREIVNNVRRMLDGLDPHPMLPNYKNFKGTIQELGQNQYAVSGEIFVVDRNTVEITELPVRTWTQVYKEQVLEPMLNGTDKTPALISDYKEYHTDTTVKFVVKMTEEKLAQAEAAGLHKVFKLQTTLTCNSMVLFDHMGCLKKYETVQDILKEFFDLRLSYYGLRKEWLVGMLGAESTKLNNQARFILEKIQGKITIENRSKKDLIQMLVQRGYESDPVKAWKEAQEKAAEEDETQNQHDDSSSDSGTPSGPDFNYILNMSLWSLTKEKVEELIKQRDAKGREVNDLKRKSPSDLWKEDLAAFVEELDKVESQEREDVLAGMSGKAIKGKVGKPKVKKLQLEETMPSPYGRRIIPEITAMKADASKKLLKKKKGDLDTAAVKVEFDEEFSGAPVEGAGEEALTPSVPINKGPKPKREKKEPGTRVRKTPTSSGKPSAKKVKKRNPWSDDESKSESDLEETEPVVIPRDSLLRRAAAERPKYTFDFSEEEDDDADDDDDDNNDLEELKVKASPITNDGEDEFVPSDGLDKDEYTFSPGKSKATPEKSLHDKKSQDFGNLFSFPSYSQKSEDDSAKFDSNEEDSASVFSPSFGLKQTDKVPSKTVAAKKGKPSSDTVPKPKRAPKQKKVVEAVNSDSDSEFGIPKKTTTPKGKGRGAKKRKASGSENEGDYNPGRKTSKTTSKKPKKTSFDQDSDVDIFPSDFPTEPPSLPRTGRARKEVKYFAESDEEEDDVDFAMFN

In assay [1] the target is 6×His tagged TOP1 (human) (UniProt P11387). Put plainly: pull-down.
The target in assay [2] is FLAG tagged TOP2α (human) (UniProt P11388). The experiment in a line: co-IP.
For assay [3], the target named is FLAG tagged TOP2β (human) (UniProt Q02880). The experiment in a line: co-IP.

Results are given in words; binding and its absence hold for the method and conditions named. Binding seen in cells or lysates may run through a third protein. Some binding calls cover weakened binding; strength is not graded here. For some of these results: Where a sequence is shown, tags or fusion partners need not be part of it.

Regarding TOP1 (from UniProt P11387 1-765), the binding entry with FLAG-PIAS4 (human) is given as “binds”.

B1: PIAS4 (protein, UniProt Q8N2W9 1-510)
chain: MAAELVEAKNMVMSFRVSDLQMLLGFVGRSKSGLKHELVTRALQLVQFDCSPELFKKIKELYETRYAKKNSEPAPQPHRPLDPLTMHSTYDRAGAVPRTPLAGPNIDYPVLYGKYLNGLGRLPAKTLKPEVRLVKLPFFNMLDELLKPTELVPQNNEKLQESPCIFALTPRQVELIRNSRELQPGVKAVQVVLRICYSDTSCPQEDQYPPNIAVKVNHSYCSVPGYYPSNKPGVEPKRPCRPINLTHLMYLSSATNRITVTWGNYGKSYSVALYLVRQLTSSELLQRLKTIGVKHPELCKALVKEKLRLDPDSEIATTGVRVSLICPLVKMRLSVPCRAETCAHLQCFDAVFYLQMNEKKPTWMCPVCDKPAPYDQLIIDGLLSKILSECEDADEIEYLVDGSWCPIRAEKERSCSPQGAILVLGPSDANGLLPAPSVNGSGALGSTGGGGPVGSMENGKPGADVVDLTLDSSSSSEDEEEEEEEEEDEDEEGPRPKRRCPFQKGLVPAC
Take B1: the binding result in assay [1], in assay [2] and in assay [3] was “binds” throughout.

The values are drawn from article doi:10.1101/707661.
